PubChem BioAssay AID504774 – Drosophila RNAi Screening Center – 2011
In all, the deposit lists about 23,000 reagents; this is a random part of those that have a named target and a result. 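Values are quantile-normalised luminescence on an arbitrary scale; higher means more cells surviving MMS.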 The numbers tell different reagents against one gene apart. Names joined by + are all predicted targets of the reagent.

Purpose: 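Knock-downs that shift viability of MMS-exposed cells relative to untreated ones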 (primary screen)
Cells: Drosophila Kc167 cells
Reagents: long dsRNA against Drosophila genes, about 0.25 µg dsRNA per well
Duration: about 6 days: 3 days knock-down, then 3 days with or without MMS
Treatment: methyl methanesulphonate 0.004% (w/v) for 3 days after knock-down
Read-out: 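Viability in wells given MMS, read as ATP luminescence, normalised by quantiles plate by plate and averaged across replicates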
Scale: mean viability with MMS and viability with MMS: higher = more surviving cells after MMS

| mean viability with MMS | viability with MMS, replicate 1 | viability with MMS, replicate 2 | gene | reagent no. |
| --- | --- | --- | --- | --- |
| 3.45e6 | 3.84e6 | 3.96e6 | ear | 1 |
| 3.64e6 | 3.97e6 | 4.31e6 | CG15386 + CG42371 | 1 |
| 3.54e6 | 4.05e6 | 3.95e6 | Gr98d | 1 |
| 3.46e6 | 3.88e6 | 3.95e6 | CG42588 | 1 |
| 3.50e6 | 3.93e6 | 4.02e6 | CG42588 | 2 |
| 3.67e6 | 4.15e6 | 4.11e6 | Rassf | 1 |
| 3.50e6 | 3.92e6 | 4.00e6 | Pop2 | 1 |
| 3.58e6 | 4.09e6 | 4.05e6 | Ets21C | 1 |
| 2.99e6 | 3.81e6 | 3.12e6 | Iswi | 1 |
| 3.69e6 | 4.11e6 | 4.18e6 | CG31775 + CG42586 | 1 |
| 3.66e6 | 4.15e6 | 4.15e6 | CG31775 + CG42586 | 2 |
| 3.62e6 | 4.09e6 | 4.12e6 | CG3651 | 1 |
| 3.54e6 | 3.91e6 | 4.13e6 | Men | 1 |
| 3.43e6 | 3.99e6 | 4.08e6 | Men | 2 |
| 3.55e6 | 4.08e6 | 3.94e6 | Men | 3 |
| 3.46e6 | 3.88e6 | 3.94e6 | Pcif1 | 1 |
| 3.38e6 | 3.85e6 | 3.80e6 | CG12522 | 1 |
| 3.60e6 | 3.96e6 | 4.17e6 | Vha16-2 | 1 |
| 3.57e6 | 4.25e6 | 3.83e6 | GluRIB + CG42509 (retired record) | 1 |
| 3.54e6 | 4.15e6 | 3.87e6 | GluRIB + CG42509 (retired record) | 2 |
| 3.42e6 | 3.71e6 | 4.00e6 | ord | 1 |
| 3.64e6 | 4.17e6 | 4.11e6 | CG18324 | 1 |
| 3.54e6 | 4.19e6 | 3.85e6 | Sgsh | 1 |
| 3.33e6 | 3.78e6 | 3.81e6 | CG1233 | 1 |
| 3.47e6 | 3.95e6 | 3.94e6 | CG30105 | 1 |
| 3.59e6 | 3.94e6 | 4.17e6 | GstT1 | 1 |
| 3.42e6 | 3.75e6 | 3.99e6 | CG32409 | 1 |
| 3.54e6 | 3.96e6 | 4.06e6 | CG9896 | 1 |
| 3.58e6 | 4.11e6 | 4.02e6 | CG9896 | 2 |
| 3.31e6 | 3.78e6 | 3.87e6 | CG32461 | 1 |
| 3.48e6 | 3.98e6 | 3.93e6 | Vm34Ca | 1 |
| 3.60e6 | 4.08e6 | 4.08e6 | CG14778 | 1 |
| 3.65e6 | 4.04e6 | 4.14e6 | CG10035 | 1 |
| 3.54e6 | 4.10e6 | 3.93e6 | dnk | 1 |
| 3.45e6 | 3.90e6 | 3.93e6 | GATAe | 1 |
| 3.49e6 | 3.98e6 | 3.98e6 | GATAe | 2 |
| 3.70e6 | 4.16e6 | 4.18e6 | CG18536 | 1 |
| 3.44e6 | 4.00e6 | 3.88e6 | CR30068 (retired record) | 1 |
| 3.59e6 | 4.10e6 | 4.04e6 | tll | 1 |
| 3.55e6 | 4.03e6 | 4.04e6 | Mau2 | 1 |
| 3.45e6 | 3.91e6 | 3.92e6 | CG30398 | 1 |
| 3.26e6 | 3.71e6 | 3.74e6 | Mat1 | 1 |
| 3.70e6 | 4.15e6 | 4.17e6 | Fibp | 1 |
| 3.51e6 | 3.99e6 | 3.98e6 | CG6138 | 1 |
| 3.63e6 | 4.17e6 | 4.04e6 | CG32099 | 1 |
| 3.43e6 | 4.01e6 | 3.71e6 | Ugt36E1 | 1 |
| 3.38e6 | 3.92e6 | 3.79e6 | Rab11 | 1 |
| 3.45e6 | 3.93e6 | 3.89e6 | Pdcd4 | 1 |
| 3.36e6 | 3.78e6 | 3.77e6 | CG15098 | 1 |
| 3.37e6 | 3.62e6 | 3.95e6 | Sirt1 | 1 |
| 3.68e6 | 4.04e6 | 4.31e6 | CG10863 | 1 |
| 3.52e6 | 4.01e6 | 3.95e6 | flw | 1 |
| 3.36e6 | 3.78e6 | 3.85e6 | flw | 2 |
| 3.62e6 | 4.15e6 | 4.04e6 | Alg14 | 1 |
| 2.78e6 | 3.60e6 | 3.61e6 | CG12054 | 1 |
| 3.40e6 | 3.87e6 | 3.87e6 | CG12054 | 2 |
| 3.46e6 | 4.00e6 | 3.86e6 | CG8230 | 1 |
| 3.55e6 | 3.97e6 | 4.09e6 | CG2930 | 1 |
| 3.44e6 | 3.93e6 | 3.89e6 | CG18178 | 1 |
| 3.64e6 | 4.12e6 | 4.13e6 | E(spl)m7-HLH | 1 |
| 3.49e6 | 3.97e6 | 3.95e6 | E(z) | 1 |
| 3.56e6 | 4.01e6 | 4.06e6 | CG33489 | 1 |
| 3.63e6 | 4.15e6 | 4.11e6 | ATPsynCF6L | 1 |
| 3.50e6 | 3.89e6 | 4.03e6 | Dred | 1 |
| 1.98e6 | 4.09e6 | 4.16e6 | Dred | 2 |
| 3.54e6 | 3.96e6 | 4.07e6 | Atpalpha | 1 |
| 3.48e6 | 3.97e6 | 3.91e6 | gry | 1 |
| 3.74e6 | 4.19e6 | 4.29e6 | gry | 2 |
